PubChem BioAssay AID504786, Drosophila RNAi Screening Center, 2011
Screen: 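Positive regulators of HIF-driven reporter output in Drosophila cells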 (primary screen). System: Drosophila S2 cells with a stable HIF luciferase reporter. Reagent: long dsRNA against Drosophila genes, about 0.2 µg dsRNA per well of a 384-well plate. Time to read-out: three days of knock-down, then 20 h of DFO before reading. Challenge: desferrioxamine (DFO) at 100 µM, an iron chelator that mimics hypoxia, for 20 h. Measured: 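Firefly luciferase driven by the mouse ldh-a hypoxia-response element, measured after 20 h of 100 µM DFO; z-scores per plate, higher means more signal lost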. Direction: z-score: higher = stronger loss of HIF reporter signal.
The deposit covers about 21,000 reagents; this is a random part of those that have a named target and a result. 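Primary screen; positive scores mean lost reporter signal, so the sign may be inverted from the usual convention.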 A plus sign joins genes that one reagent is predicted to hit.

z-score, replicate 1	z-score, replicate 2	z-score, replicate 3	z-score, replicate 4	Gene	amplicon
-0.2	-0.6			CG12729	DRSC17884
-0.3	-0.3			Spt	DRSC07123
-0.5	-0.5			CG7884	DRSC20065
0.6	0.1			Spc25	DRSC14164
-0.4	-0.3			CG11593	DRSC08206
-0.1	0			spidey	DRSC17932
4.2	4.4			Prosalpha1R + Prosalpha1	DRSC07515
-0.5	0			TH1	DRSC20289
0.2	-0.4			mTTF	DRSC01909
-0.3	-0.4			Obp83ef	DRSC12268
-0.4	-0.4			CG1532	DRSC20516
-0.4	-0.4			CIA30	DRSC16266
-0.3	-0.6			Sox102F	DRSC17204
-0.2	-0.6			sals	DRSC14925
-0.3	0.8			sals	DRSC16113
-0.3	-0.4			CG6220	DRSC06969
0	-0.2			CG32695	DRSC17975
-0.3	-0.1			salr	DRSC03607
-0.2	0.2			Ugt35D1	DRSC15107
-0.1	0.2			CG8468	DRSC07190
-0.4	-0.5			Drice	DRSC16715
-0.4	-0.1			gro	DRSC16962
-0.2	-0.4			nau	DRSC17011
0	-0.7			CG3655	DRSC17676
-0.3	-0.4			CG3655	DRSC18181
-0.4	-0.4			CG3655	DRSC18477
0.9	0.7			ATPsynepsilonL	DRSC14548
-0.3	-0.4			Gclm	DRSC15677
-0.2	-0.3			Nplp2	DRSC09824
-0.3	1.3			CG14391	DRSC14850
0.7	-0.2			CG17190	DRSC15184
0.1	-0.1			AsnRS-m	DRSC07010
-0.2	-0.3			CG34273	DRSC13041
0	-0.6			CG11670	DRSC14342
-0.4	0.1			mex1	DRSC11368
-0.3	-0.3			eco	DRSC11006
-0.2	-0.4			ND-B14.5AL	DRSC11795
-0.3	-0.4			croc	DRSC11884
-0.2	0.2			cup	DRSC03516
-0.1	0.2			BORCS7 + CG13430	DRSC06392
-0.3	0.4			BORCS7 + CG13430	DRSC06707
-0.5	-0.1			betaTub65B	DRSC11393
-0.1	-0.4			kdn	DRSC18328
-0.4	-0.2			CG10098	DRSC12509
-0.3	-0.4			Osi3	DRSC12175
0	-0.1			CG9084	DRSC07335
-0.3	-0.2			CG5339	DRSC04496
0.3	0.2			P5cr	DRSC16782
-0.3	-0.5			TfIIA-S-2	DRSC17791
-0.2	-0.3			CG4161	DRSC01930
-0.3	-0.4			CtsL2	DRSC06978
-0.2	-0.4			CG3323	DRSC18303
-0.1	-0.4			CG10602	DRSC02075
-0.2	-0.3			CG1896	DRSC15397
-0.2	-0.6			dpn	DRSC07605

Copied from the entries so far, 7 entries:
z-score, replicate 1	z-score, replicate 2	z-score, replicate 3	z-score, replicate 4	Gene	amplicon
-0.2	-0.3			Nplp2	DRSC09824
-0.3	1.3			CG14391	DRSC14850
0.7	-0.2			CG17190	DRSC15184
0.1	-0.1			AsnRS-m	DRSC07010
-0.2	-0.3			CG34273	DRSC13041
0	-0.6			CG11670	DRSC14342
-0.4	0.1			mex1	DRSC11368

Continued.
z-score, replicate 1	z-score, replicate 2	z-score, replicate 3	z-score, replicate 4	Gene	amplicon
-0.3	-0.5			ed	DRSC00350
-0.2	-0.3			ed	DRSC00438
-0.2	-0.1			ed	DRSC00439
-0.2	-0.4			ed	DRSC00478
-0.4	0			CG13784	DRSC00974
-0.1	-0.2			CG13784	DRSC02287
-0.2	0			ldbr	DRSC10933
-0.3	-0.3			CG7550	DRSC10875
0.2	-0.2			Sin3A	DRSC07552
-0.7	-0.3			CG5388	DRSC15789
-0.3	-0.3			Rbbp5 + CG6434 (retired record)	DRSC10635
-0.3	0.3			CG13404	DRSC19536
-0.3	-0.4			l(2)05714	DRSC03118
-0.4	-0.3			Glt	DRSC03333
-0.4	-0.2			CG34124	DRSC00849
0	0.2			tinc	DRSC14798
0.1	0			tinc	DRSC14799
0.8	0.4			tinc	DRSC16308
-0.6	-0.2			tinc	DRSC16309
-0.6	-0.2			uex	DRSC20784
-0.4	-0.2			uex	DRSC20786
0.8	1.1			ACC	DRSC06059
0.5	1.8			ACC	DRSC07249
-0.2	-0.5			Snrk	DRSC07192
-0.2	-0.5			CG13088	DRSC02192
-0.1	-0.4			Argk2	DRSC10483
-0.3	0			Prosbeta5R2	DRSC01617
-0.4	0.2			Twdlalpha	DRSC19914
-0.3	-0.4			CG17211	DRSC02587
-0.3	1.7			Gat	DRSC17144
-0.2	0.6			CG31019	DRSC13994
-0.3	0.2			CG32813	DRSC17948
-0.4	-0.7			CG14631	DRSC17792
-0.4	-0.7			CG14631	DRSC17941
-0.2	-0.7			CG6695	DRSC16098
-0.1	-0.4			CG3603	DRSC18317
-0.4	-0.9			Syn1	DRSC11803
-0.4	-0.2			Syn1	DRSC11804
-0.4	-0.2	-0.7	-0.4	CG8492	DRSC10984
-0.4	-0.7			tea	DRSC06110
-0.3	-0.6			tea	DRSC06236
-0.1	-0.2			Sac1	DRSC08622
-0.2	-0.2			CG11251	DRSC09825
-0.3	-0.3			CG45263	DRSC12682
-0.3	-0.4			CG45263	DRSC14360
-0.4	0			CG45263	DRSC14361
-0.6	-0.8			CG45263	DRSC14363
-0.3	-0.5			CG12502	DRSC08281
0.2	0			RecQ4	DRSC11265
-0.3	-0.5			snz	DRSC17969
-0.3	-0.6			Ufsp2	DRSC10231
